From article PMC6978637 (Saudi Pharmaceutical Journal : SPJ, 2019)

Test system: NIH-3T3 cells
Assay: WST-1 cytotoxicity assay
Format: cell-based
Settings: Mus musculus, NIH3T3, 48 h, read-out: NIH-3T3 Cells IC50

CN[C@@H]1C[C@H]2O[C@@](C)([C@@H]1OC)n1c3ccccc3c3c4c(c5c6ccccc6n2c5c31)C(=O)NC4 [Staurosporin, Staurosporine, reference compound]
IC50: 0.039 ± 0.00228 µM
